At least one peptide structure holds a part that was inferred or is arguable (an end, a ring closure or a residue). At least one read-out could not be matched to a standard name with certainty. Numbered stars: 1 amine (or outer) side, 2 acyl side, 3 side chain; on linkers, the order of the positions; unused ones are H or OH. Square brackets hold non-standard residues; d marks the D form. Peptide text beside a SMILES is read from it. X1 = O=C([C@H](CO)N(c1ccc([N+](=O)[O-])c2nonc12)[*:1])[*:2]
Molecular target: PKCα (Homo sapiens, UniProt P17252)
Experiment: Radioactive PKC assay ([γ-32P]ATP)
Type: biochemical
Settings: Table 2
Method: Radioactive PKC Assay—Radioactive assays were performed in duplicate at 30° C. The final assay volume totaled 40 μl and contained 62.5 mM HEPES (pH 7.4), 0.75 mM CaCl2, 12.5 mM MgCl2, 1 mM dithiothreitol, 0.5 mM EGTA, 7.5 μg/mL phosphatidylserine, 1.6 μg/mL diacylglycerol, and 10 ng of PKC. […] Phosphorylation reactions were initiated by the addition of 10 μL of PKC from a stock solution (20 mM Tris-HCl at pH 7.5, 1 mM dithiothreitol, 1 mM EDTA, and 0.75 mg/mL bovine serum albumin) into 30 μL of assay buffer containing peptide substrate. Reactions were terminated after 5 min by spotting 25 μL aliquots onto phosphocellulose paper disks (2.1 cm in diameter). After 10 s, the disks were immersed in 10% glacial acetic acid and soaked with occasional stirring for at least 1 h. The acetic acid was decanted and the disks were collectively washed with four volumes of 0.5% H3PO4, 1 volume of water, followed by a final acetone rinse. The disks were air dried and then counted in a Beckman LS scintillation counter.

Compound `N=C(N)NCCC[C@H](NC(=O)[C@H](CCCNC(=N)N)NC(=O)[C@H](CCCNC(=N)N)NC(=O)[C@H](CCCNC(=N)N)NC(=O)[C@H](Cc1ccccc1)NC(=O)[C@H](CO)Nc1ccc([N+](=O)[O-])c2nonc12)C(=O)N[C@@H](CCCCN)C(N)=O` [peptide 2, 7-nitrobenz-2-oxa-1,3-diazole (NBD)-NH-Ser-Phe-Arg4-Lys-amide] (H-[X1]FRRRRK-NH2) has a kcat/Km of 700000 ± 83000 M⁻¹ s⁻¹.

Source: US7759459B2, “Fluorescent assays for protein kinases” (Albert Einstein College of Medicine of Yeshiva University, priority 2003, dated 2010)
